Results of single-concentration screens

Chains of the proteins cited; added tags and fusions are not shown.
UniProt P9WPC5, whole entry: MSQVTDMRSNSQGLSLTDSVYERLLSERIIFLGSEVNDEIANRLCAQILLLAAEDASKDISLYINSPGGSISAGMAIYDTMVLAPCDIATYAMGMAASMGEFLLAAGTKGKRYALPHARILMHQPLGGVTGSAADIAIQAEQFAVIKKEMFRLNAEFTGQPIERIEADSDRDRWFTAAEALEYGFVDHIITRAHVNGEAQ
UniProt P9WPC3, whole entry partner: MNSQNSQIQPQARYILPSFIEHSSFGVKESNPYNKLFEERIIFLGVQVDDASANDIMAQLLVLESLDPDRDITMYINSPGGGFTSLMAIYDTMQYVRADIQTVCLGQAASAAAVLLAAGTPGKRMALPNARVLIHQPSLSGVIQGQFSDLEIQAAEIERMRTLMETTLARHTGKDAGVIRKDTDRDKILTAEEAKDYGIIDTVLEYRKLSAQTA
UniProt P9WNZ1, whole entry: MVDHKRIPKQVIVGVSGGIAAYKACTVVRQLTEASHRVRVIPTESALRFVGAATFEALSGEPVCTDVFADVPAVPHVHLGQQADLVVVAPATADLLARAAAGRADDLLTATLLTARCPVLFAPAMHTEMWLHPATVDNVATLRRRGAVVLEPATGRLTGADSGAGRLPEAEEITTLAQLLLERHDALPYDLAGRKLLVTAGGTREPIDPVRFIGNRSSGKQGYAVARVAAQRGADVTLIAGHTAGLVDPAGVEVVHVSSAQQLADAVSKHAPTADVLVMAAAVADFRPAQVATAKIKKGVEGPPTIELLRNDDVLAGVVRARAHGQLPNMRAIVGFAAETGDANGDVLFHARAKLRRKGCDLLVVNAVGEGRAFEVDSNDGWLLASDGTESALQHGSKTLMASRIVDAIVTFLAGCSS

Values are the deposited “Percent Effect”, in %. The record does not define 0% and 100%; most values in the screen are far below 50% and negative numbers occur (in some assays of this library far below -100). This is an unselected part of the compounds tested. A dash means the value is not listed here; it may have been measured.

Toxoplasma: 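Assay of Toxoplasma gondii numbers, read through their beta-galactosidase reporter with a colour substrate. Compounds at 10 µM. The record gives no direction; the compounds picked for IC50 retests had high values, so higher reads as fewer parasites. About 67,000 compounds were tested under these conditions; 0.38% (about 260) showed 50% or more at least once.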
ClpP1P2: 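ClpP1P2, Mycobacterium tuberculosis (UniProt P9WPC5 and UniProt P9WPC3). Protease assay of ClpP1P2, read by the AMC dye that it sets free. Compounds at 50 µM. Direction is inferred from only a few compounds that gave an IC50; most scored high, so higher reads as stronger inhibition. Most other retested compounds had strongly negative values. About 69,000 compounds were tested under these conditions; 0.015% (about 10) showed 50% or more at least once.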
T. brucei: 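Whole-parasite assay of Trypanosoma brucei over 72 hours; the read-out is not stated. Concentration: 30 µM. The record gives no direction; compounds that gave an IC50 in retests scored well above the rest, so higher reads as stronger inhibition. Values scatter widely below zero; nearly all retest evidence comes from the higher of the two concentrations used. About 64,000 compounds were tested under these conditions; 1.5% (about 940) showed 50% or more at least once.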
CoaBC: 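Coenzyme A biosynthesis protein CoaBC, Mycobacterium tuberculosis (UniProt P9WNZ1). Enzyme assay of CoaBC with a phosphate dye (Biomol Green) read at 650 nm. Concentration: 30 µM. Direction is inferred from only a few compounds that gave an IC50; most scored high, so higher reads as stronger inhibition. Most strong results did not repeat in a second test. About 67,000 compounds were tested under these conditions; 0.06% (about 40) showed 50% or more at least once.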

compound | Toxoplasma | ClpP1P2 | T. brucei | CoaBC
CCOC(=O)c1sc2ccsc2c1CNS(C)(=O)=O | 5.725 | -14.83 | - | -4.359
O=C(O)C(F)(F)F.O=C(O)C(F)(F)F.O=C(O)C(F)(F)F.[H][C@@]12CCCO[C@]1([H])[C@H](N(CC)CC)CN2Cc1nccn1C | -10.87 | - | - | -
Cc1nc(C)c(C(C)NCc2cnc(N3CCOCC3)nc2)s1 (stereo not drawn) | - | -5.403 | - | 3.648
Cc1nc(CN2C[C@@H]3CN(C(=O)C4(C#N)CC4)C[C@@H]3C2=O)cs1 | - | 6.301 | - | -1.269
NC(=O)C1CCN(C(=O)NCc2cccnc2OC2CCCC2)C1 (stereo not drawn) | 7.562 | -13.34 | -19.23 | 2.296
CCc1nccn1C1CCCN(C(=O)CCCNc2ncccn2)C1 (stereo not drawn) | -3.431 | -1.06 | 15.07 | 3.655
Cc1occc1C(=O)N1Cc2nccn2CC(CN(C)C)C1.O=C(O)C(F)(F)F (stereo not drawn) | -13.51 | - | -18.57 | -
CCn1ccnc1CN1C[C@@H](CN2CCCC2)[C@@H](CO)C1 | -1.039 | -11.28 | -17.72 | -4.904
CS(=O)(=O)CCN1CCc2c(ncn2C2CC2)C1 | 8.098 | 2.143 | - | -3.789
CC(C)(C(=O)NCc1n[nH]c(=O)[nH]1)c1ccc(F)cc1 | 1.311 | -8.834 | -28.52 | -1.304
Cn1c(CN2CCOCC2)nnc1C1CCCN(C(=O)CCC2CC2)C1 (stereo not drawn) | 7.421 | 6.961 | -43.16 | -5.556
COC(=O)c1ccc(NC(C)c2ccc3c(c2)CCC(=O)N3)nn1 (stereo not drawn) | 3.176 | 0.3983 | -16.4 | 4.714
Cc1ccc(C2CCCCCN2Cc2cn(C)nc2C)cc1 (stereo not drawn) | -4.324 | -2.773 | 36.39 | 4.689
c1cnc2[nH]c(C3CCCC3)c(CN3CCOCC3)c2c1 | 10.76 | 10.77 | 3.773 | 5.085
CNC(=O)c1cc2c(nc1NC(C)C)CCN(C(=O)NC(C)C)CC2 | -3.562 | -860.5 | 17.44 | -0.8811
Cc1cc(C)nc(C2CCN(C3CCCCC3)C2)n1 (stereo not drawn) | 32.68 | -8.982 | -6.719 | 2.577
CCC(=O)N1CSCC1C(=O)Nc1ccccc1-c1cccs1 (stereo not drawn) | -0.0778 | -4.468 | -56.11 | -
COC(CNC(=O)c1cc(C)on1)c1ccccc1C (stereo not drawn) | -8.517 | -11.78 | -18.43 | -1.882
CC(=O)Nc1ncc(S(=O)(=O)Nc2ccc3c(c2)OCCO3)s1 | 68.62 | 6.431 | -32.55 | -38.34
CC(Cn1cccn1)NC(=O)C1=Cc2ccccc2OC1 (stereo not drawn) | 0.8876 | 5.997 | -8.648 | 0.8264
O=C(NCc1ccccc1Cn1cncn1)N1CCCC1 | 9.722 | 11.89 | -4.558 | 5.052
CCn1cc(N2Cc3nc(N4CCCC4)ncc3C2=O)cn1 | 14.75 | 15.54 | -27.06 | -4.157
Cc1csc(NC(=O)CN2CCc3c(nc(C4CC4)n3C)C2)n1 | 6.082 | -16.28 | -6.571 | -1.818
COCCN(Cc1cccs1)C(=O)c1ccc(=O)n(C)c1 | - | -13.28 | -3.424 | 0.615
CCc1nc(C(=O)N(CC)CC(=O)Nc2cc(Cl)ccc2C)c[nH]1 | 10.15 | -1.718 | 7.365 | 1.402
CN(C)CCN1C(=O)CCC12CCCN(C(=O)CC1CC1)CC2 (stereo not drawn) | 5.86 | 7.841 | -51.54 | 0.7059
CN1CCC(c2nnc3n2CCN(S(=O)(=O)c2ccccc2)C3)CC1 | -14.96 | -7.833 | 0.517 | -7.895
Cn1ncc2ccc(C3CCCN(Cc4cccs4)C3)nc21 (stereo not drawn) | 18.09 | -2.543 | 11.55 | -0.2392
O=C(O)C(F)(F)F.[H][C@@]12C[C@@H](c3nc(C4CC4)cs3)O[C@]1([H])CN(C(=O)C1CCOCC1)C2 | -4.698 | - | -4.751 | -
CCn1nc(C)cc1C(=O)NCc1nc(C)cc(C)n1 | -7.205 | -3.747 | 5.565 | -0.2058
CS(=O)(=O)N1Cc2nccn2CC(CN2CCCC2=O)C1 (stereo not drawn) | 15.12 | 1.47 | -40.01 | -7.789
O=c1[nH]c(-c2ccncc2)ncc1-c1ccnc(N2CCOCC2)n1 | 1.149 | -1.172 | 9.472 | 2.771
[H][C@@]12OCCC[C@]1([H])N(S(C)(=O)=O)C[C@H]2NC(=O)c1ccno1 | 10.85 | - | -76.47 | -
Cc1ccc(S(=O)(=O)N2CSCC2C(=O)NCC(F)(F)F)cc1C (stereo not drawn) | -11.97 | -3.569 | 4.865 | 5.216
O=C(Cc1csc(-c2ccccc2F)n1)NCc1cccc(C(=O)O)c1 | - | 2.888 | -6.975 | -0.8505
O=C(C1CN(Cc2ccsc2)Cc2ccnn2C1)N1CCCC1 (stereo not drawn) | - | -2.621 | - | -1.903
CCc1ccc2nc(C)cc(C(=O)N[C@@H]3CCCNC3)c2c1 | 0.4966 | -1.926 | 86.43 | -1.104
O=C(C1CCCCC1)N1CCCC([C@@H]2C[C@H](C(F)F)n3ncnc3N2)C1 (stereo partly drawn) | -7.786 | -0.444 | 2.895 | 0.7177
COc1cccc(CN2C[C@@H](F)[C@@H](OCc3nc4cnccc4[nH]3)C2)c1 | 0.7685 | -16.99 | -11.29 | 9.627
O=C(c1ccccc1F)N1C[C@H]2CCC[C@@]2(COCc2ccncc2)C1 | - | -3.049 | - | 1.474
O=C(O)C(F)(F)F.O[C@@H]1CCN(CC2CC2)[C@H]1Cc1ccccc1 | -2.013 | - | -28.52 | -
CCc1ccc(S(=O)(=O)N2Cc3c(CN(C)C)nn(C)c3C2)cc1.O=C(O)C(F)(F)F | -13.19 | - | -1.293 | -
O=C(c1cn(Cc2ccc(Cl)cc2)nn1)N1CCCO1 | -4.715 | -10.21 | 2.916 | 5.622
CN(C)c1ncnc2c1CCN(CC1CCCC1)CC2 | - | 7.344 | - | 7.198
CCn1cnnc1CNS(=O)(=O)N1CCCC1c1ccco1 (stereo not drawn) | -9.028 | 5.258 | -5.998 | 11.73
CCC(C)NC(=O)Cn1ccc2sc(C)cc2c1=O (stereo not drawn) | 9.049 | -0.5052 | -25.17 | 0.1203
Cc1nc(CN2CCC23CCN(C(=O)c2ccco2)CC3)cs1 | 0.9726 | -16.44 | -71.63 | -0.495
CN(C)CCNc1ncccc1CNC(=O)Nc1cc(F)cc(F)c1 | -1.578 | -6.279 | 10.66 | -15.45
CN1[C@H](CN2CCCC2)C[C@@H]2CN(Cc3ccoc3)CC[C@@H]21 | - | 6.075 | - | -
COCCC(=O)N1CCCC(CCC(=O)NCc2ccccc2F)C1 (stereo not drawn) | -17.87 | -18.14 | -19.92 | 3.396
O=C(Cc1cc(F)cc(Cl)c1)N[C@@H]1CCNC[C@H]1O | 10.98 | -9.269 | -16.01 | 3.661
CCn1cc(S(=O)(=O)NC2(CN3CCOCC3)CCCCC2)c(C)n1 | -30.35 | -16.29 | -6.409 | 0.1236
CCCS(=O)(=O)N1CCC2(CC1)CC(=O)N(CCCc1ccccc1)C2 | -3.914 | -9.178 | -47.09 | 12.38
Cc1noc([C@@H]2C[C@H]3OCC[C@H]3N(Cc3ccoc3)C2)n1 | - | -1.505 | - | 0
COc1ccc(-c2cc(C3CCOC3)c(C#N)c(N)n2)cn1 (stereo not drawn) | -15.52 | -21.42 | -31.15 | 1.587
O=C(c1cc(=O)c(OCc2ccccc2)co1)N1CCSCC1 | 21.75 | -4.847 | -23.49 | 4.051
O=C(NC1CC2(CCN(CCO)CC2)c2ccccc21)c1ccncc1.O=C(O)C(F)(F)F.O=C(O)C(F)(F)F (stereo not drawn) | -6.203 | - | -59.82 | -
COCc1nc2n(n1)CCCC2Nc1nc(C(C)C)ns1 (stereo not drawn) | - | -9.222 | -13.19 | -4.305
COc1ccc(OC)c(C2CCN(C(=O)C3CCN(C(C)C)CC3)C2)c1 (stereo not drawn) | -6.21 | 2.908 | 4.563 | -8.468
Cc1ccc(N2CC[C@H](OCC3CC3)[C@@H]2Cc2cnn(C)c2)nn1 | -3.799 | 1.849 | 51.55 | -0.207
CCN1Cc2c(C(=O)NC(C)C)ncn2-c2ccccc2S1(=O)=O | 3.353 | -4.774 | -12.22 | 4.569
Cc1cccc(C(=O)N2CCN(CCOC(C)C)CC2)n1 | 10.24 | -1.771 | -12.47 | -
Cc1[nH]/c(=N\C(=O)c2csc(NC3CCCC3)n2)sc1C | 89.34 | -4.707 | 95.68 | 2.81
CCOc1ccc(NC(=O)NCC(C)(O)c2cccs2)cc1 (stereo not drawn) | 13 | -16.87 | -52.35 | 1.695
CC(C)c1nn(C)c(Cl)c1CNCc1ccc(N(C)C)nc1 | - | -26.44 | - | 8.492
OC(CNCCn1cccn1)c1ccc2c(c1)OCCO2 (stereo not drawn) | 1.891 | 4.964 | 2.848 | 5.606
C[C@H](O)c1cnn(-c2ccccc2)c1 | 2.754 | 1.354 | -31 | -0.1274

Repeated from the top, 5 entries:

CCOC(=O)c1sc2ccsc2c1CNS(C)(=O)=O read Toxoplasma: 5.725%; ClpP1P2: -14.83%; CoaBC: -4.359%.
O=C(O)C(F)(F)F.O=C(O)C(F)(F)F.O=C(O)C(F)(F)F.[H][C@@]12CCCO[C@]1([H])[C@H](N(CC)CC)CN2Cc1nccn1C read Toxoplasma: -10.87%.
Cc1nc(C)c(C(C)NCc2cnc(N3CCOCC3)nc2)s1 (stereo not drawn) read ClpP1P2: -5.403%; CoaBC: 3.648%.
Cc1nc(CN2C[C@@H]3CN(C(=O)C4(C#N)CC4)C[C@@H]3C2=O)cs1 read ClpP1P2: 6.301%; CoaBC: -1.269%.
NC(=O)C1CCN(C(=O)NCc2cccnc2OC2CCCC2)C1 (stereo not drawn) read Toxoplasma: 7.562%; ClpP1P2: -13.34%; T. brucei: -19.23%; CoaBC: 2.296%.

From ChEMBL document CHEMBL3988442, “University of Dundee, Small-Polar-MMV Screening Library” (2021).